Test results from paper PMC7956155 (Journal of Medicinal Chemistry, 2021).
Strings that start with PEPTIDE1 are HELM notation: dots part the residues, brackets hold end groups and non-standard residues.

Assay: peptide synthesis
Details: whole synthesis, RP-HPLC

Substance: PEPTIDE1{H.[dS].Q.G.T.F.T.S.D.L.S.[LysN3].Y.L.E.E.E.A.V.R.E.F.I.A.W.L.K.N.G.G.P.S.R.H.Y.L.N.L.V.T.R.Q.R.Y.[am]}$$$$V2.0
- final HPLC purity: 95.05%
